Taken from: PubChem BioAssay AID652243 (Drosophila RNAi Screening Center, 2013)

Test: 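Fly genes required for human androgen receptor driven transcription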 (primary screen)
Cells: Drosophila S2R+ cells
Knock-down reagent: long dsRNA against Drosophila genes
Duration: 72 h (48 h, then 24 h hormone)
Treatment: synthetic androgen R1881 at 10 nM for 24 h
Read-out: 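Firefly light from an androgen-responsive reporter and Renilla control light per well, raw and unnormalised, for each of two replicates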
Reading the numbers: firefly reporter light: higher = more light from androgen-responsive reporter; Renilla control light: higher = more constitutive control signal (cell number, transfection)
Call rule: 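Across duplicate plates, a knock-down whose log firefly/Renilla ratio shifted a set fold down or up from the GFP/LacZ control mean was a hit; the downward cut appears as both 1.5 and 3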
Calls: active = hit: reporter lowered or raised; inactive = no hit
The deposit covers about 24,000 reagents; this is an unselected part of those with a known target gene and a result. Over the whole deposit, 246 (1%) got an active call. 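Plates not normalised; calls are printed but the firefly/Renilla ratio behind them is not deposited; fold cut for lowering reported inconsistently.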 Raw values are not corrected between plates. Names joined by + are all predicted targets of the reagent. No sequences are given here. The record does not give: the amount of reagent.

For CG10702 [DRSC02097], the entry reads firefly reporter light, replicate 1 = 8.31e5; firefly reporter light, replicate 2 = 8.57e5; Renilla control light, replicate 1 = 1.17e6; Renilla control light, replicate 2 = 1.26e6; inactive.
After knock-down of CG10702 [DRSC36848], the record shows inactive.
CG10702 [DRSC36849] scored inactive.
Knock-down of CG14273 [DRSC02377] came out at: firefly reporter light, replicate 1 = 1.23e5; firefly reporter light, replicate 2 = 1.47e5; Renilla control light, replicate 1 = 2.01e6; Renilla control light, replicate 2 = 2.06e6; inactive.
CG14273 [DRSC27247] scored firefly reporter light, replicate 1 = 5.80e5; firefly reporter light, replicate 2 = 5.57e5; Renilla control light, replicate 1 = 5.01e5; Renilla control light, replicate 2 = 4.40e5; inactive.
Against Gapdh2 [DRSC20246], the values are firefly reporter light, replicate 1 = 4.46e5; firefly reporter light, replicate 2 = 5.07e5; Renilla control light, replicate 1 = 3.09e6; Renilla control light, replicate 2 = 2.42e6; inactive.
After knock-down of Gapdh2 [DRSC24596] the results were firefly reporter light, replicate 1 = 4.70e5; firefly reporter light, replicate 2 = 4.18e5; Renilla control light, replicate 1 = 4.29e5; Renilla control light, replicate 2 = 4.75e5; inactive.
With knock-down of CG7071 + Muted [DRSC16189] the results were firefly reporter light, replicate 1 = 2.68e5; firefly reporter light, replicate 2 = 3.27e5; Renilla control light, replicate 1 = 3.42e6; Renilla control light, replicate 2 = 2.92e6; inactive.
Depletion of lncRNA:CR40465 [DRSC37851] resulted in: firefly reporter light, replicate 1 = 7.99e5; firefly reporter light, replicate 2 = 8.94e5; Renilla control light, replicate 1 = 1.36e6; Renilla control light, replicate 2 = 1.76e6; inactive.
CG5773 [DRSC06955] scored firefly reporter light, replicate 1 = 2.44e5; firefly reporter light, replicate 2 = 4.38e5; Renilla control light, replicate 1 = 1.98e6; Renilla control light, replicate 2 = 1.98e6; inactive.
With knock-down of CG5773 [DRSC28940] the results were firefly reporter light, replicate 1 = 8.11e5; firefly reporter light, replicate 2 = 5.32e5; Renilla control light, replicate 1 = 1.25e6; Renilla control light, replicate 2 = 1.43e6; inactive.
For HIP + HIP-R [DRSC18245], the entry reads firefly reporter light, replicate 1 = 1.26e5; firefly reporter light, replicate 2 = 1.16e5; Renilla control light, replicate 1 = 1.12e6; Renilla control light, replicate 2 = 7.89e5; inactive.
With knock-down of HIP + HIP-R [DRSC27912], the record shows firefly reporter light, replicate 1 = 4.01e5; firefly reporter light, replicate 2 = 2.51e5; Renilla control light, replicate 1 = 9.32e5; Renilla control light, replicate 2 = 6.67e5; inactive.
Knock-down of HIP + HIP-R [DRSC38701] resulted in: firefly reporter light, replicate 1 = 4.51e5; firefly reporter light, replicate 2 = 4.36e5; Renilla control light, replicate 1 = 1.39e6; Renilla control light, replicate 2 = 1.40e6; inactive.

As entered above:
HIP + HIP-R [DRSC27912], firefly reporter light, replicate 2: 2.51e5
Under “firefly reporter light, replicate 1”, CG14273 [DRSC02377] reads 1.23e5
